According to doi:10.1101/2024.10.14.618148:
These are yes or no findings as the source states them, for the method shown. Some entries that bind do so weakly or less than the wild type.

T1: mouse Slx4(1–758) (mouse) (UniProt Q6P1D7)
T1 sequence: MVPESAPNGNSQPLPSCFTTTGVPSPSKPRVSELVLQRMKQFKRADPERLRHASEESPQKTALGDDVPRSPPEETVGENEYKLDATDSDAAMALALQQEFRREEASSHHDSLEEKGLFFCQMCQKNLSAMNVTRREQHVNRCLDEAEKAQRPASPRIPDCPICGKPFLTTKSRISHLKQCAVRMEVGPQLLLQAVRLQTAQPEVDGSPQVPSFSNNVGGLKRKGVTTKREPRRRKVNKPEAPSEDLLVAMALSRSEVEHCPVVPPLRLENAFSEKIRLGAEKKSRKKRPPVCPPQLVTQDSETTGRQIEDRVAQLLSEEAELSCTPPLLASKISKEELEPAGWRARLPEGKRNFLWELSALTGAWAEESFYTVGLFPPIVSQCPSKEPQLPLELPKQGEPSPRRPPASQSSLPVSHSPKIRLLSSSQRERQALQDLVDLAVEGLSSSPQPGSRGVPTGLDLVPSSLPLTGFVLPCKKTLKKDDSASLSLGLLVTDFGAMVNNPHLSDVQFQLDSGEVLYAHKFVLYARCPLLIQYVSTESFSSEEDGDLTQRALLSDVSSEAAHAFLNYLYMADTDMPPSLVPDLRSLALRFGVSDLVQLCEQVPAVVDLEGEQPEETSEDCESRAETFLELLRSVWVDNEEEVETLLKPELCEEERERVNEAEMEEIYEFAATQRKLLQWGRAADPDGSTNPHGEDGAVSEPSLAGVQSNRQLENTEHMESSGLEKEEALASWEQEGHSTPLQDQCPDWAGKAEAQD

T2: mouse Xpf (full length) (mouse) (UniProt Q9QZD4)
T2 sequence: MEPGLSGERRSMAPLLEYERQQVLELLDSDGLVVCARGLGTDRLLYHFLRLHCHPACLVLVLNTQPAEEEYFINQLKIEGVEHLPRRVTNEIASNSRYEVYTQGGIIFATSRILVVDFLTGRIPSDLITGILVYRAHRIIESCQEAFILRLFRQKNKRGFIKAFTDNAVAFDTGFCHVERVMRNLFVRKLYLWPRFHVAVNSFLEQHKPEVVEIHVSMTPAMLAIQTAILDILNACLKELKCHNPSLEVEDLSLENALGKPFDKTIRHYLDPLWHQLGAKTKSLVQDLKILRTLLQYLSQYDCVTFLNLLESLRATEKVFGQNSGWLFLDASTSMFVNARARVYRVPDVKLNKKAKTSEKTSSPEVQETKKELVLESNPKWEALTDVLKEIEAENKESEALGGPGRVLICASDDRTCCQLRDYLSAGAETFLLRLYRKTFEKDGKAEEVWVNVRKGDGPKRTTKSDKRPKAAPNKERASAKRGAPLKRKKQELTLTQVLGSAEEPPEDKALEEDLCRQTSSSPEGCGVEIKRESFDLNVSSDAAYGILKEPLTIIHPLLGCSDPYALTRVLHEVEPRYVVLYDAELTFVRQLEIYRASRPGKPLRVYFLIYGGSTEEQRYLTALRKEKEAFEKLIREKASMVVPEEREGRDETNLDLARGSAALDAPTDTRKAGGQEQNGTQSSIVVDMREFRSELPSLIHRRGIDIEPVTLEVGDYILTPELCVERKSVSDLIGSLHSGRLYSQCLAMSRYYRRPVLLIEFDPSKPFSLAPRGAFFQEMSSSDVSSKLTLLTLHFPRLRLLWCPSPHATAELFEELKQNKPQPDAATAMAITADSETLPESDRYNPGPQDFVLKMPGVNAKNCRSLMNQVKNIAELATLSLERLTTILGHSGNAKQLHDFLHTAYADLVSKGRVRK


Columns and labels:
[1] = target: T1, mouse Slx4(1–758) (mouse); assay: co-purification
[2] = target: T2, mouse Xpf (full length) (mouse); assay: co-purification

| Binder | binding [1] | binding [2] |
| --- | --- | --- |
| mouse Xpf (full length) (enzyme, UniProt Q9QZD4 1-917) MEPGLSGERRSMAPLLEYERQQVLELLDSDGLVVCARGLGTDRLLYHFLRLHCHPACLVLVLNTQPAEEEYFINQLKIEGVEHLPRRVTNEIASNSRYEVYTQGGIIFATSRILVVDFLTGRIPSDLITGILVYRAHRIIESCQEAFILRLFRQKNKRGFIKAFTDNAVAFDTGFCHVERVMRNLFVRKLYLWPRFHVAVNSFLEQHKPEVVEIHVSMTPAMLAIQTAILDILNACLKELKCHNPSLEVEDLSLENALGKPFDKTIRHYLDPLWHQLGAKTKSLVQDLKILRTLLQYLSQYDCVTFLNLLESLRATEKVFGQNSGWLFLDASTSMFVNARARVYRVPDVKLNKKAKTSEKTSSPEVQETKKELVLESNPKWEALTDVLKEIEAENKESEALGGPGRVLICASDDRTCCQLRDYLSAGAETFLLRLYRKTFEKDGKAEEVWVNVRKGDGPKRTTKSDKRPKAAPNKERASAKRGAPLKRKKQELTLTQVLGSAEEPPEDKALEEDLCRQTSSSPEGCGVEIKRESFDLNVSSDAAYGILKEPLTIIHPLLGCSDPYALTRVLHEVEPRYVVLYDAELTFVRQLEIYRASRPGKPLRVYFLIYGGSTEEQRYLTALRKEKEAFEKLIREKASMVVPEEREGRDETNLDLARGSAALDAPTDTRKAGGQEQNGTQSSIVVDMREFRSELPSLIHRRGIDIEPVTLEVGDYILTPELCVERKSVSDLIGSLHSGRLYSQCLAMSRYYRRPVLLIEFDPSKPFSLAPRGAFFQEMSSSDVSSKLTLLTLHFPRLRLLWCPSPHATAELFEELKQNKPQPDAATAMAITADSETLPESDRYNPGPQDFVLKMPGVNAKNCRSLMNQVKNIAELATLSLERLTTILGHSGNAKQLHDFLHTAYADLVSKGRVRK | binds |  |
| mouse Ercc1 (HT-3C-Full length) (protein, UniProt P07903 1-298) MDPGKDEESRPQPSGPPTRRKFVIPLEEEEVPCAGVKPLFRSSRNPTIPATSAHVAPQTYAEYAITQPPGGAGATVPTGSEPAAGENPSQTLKTGAKSNSIIVSPRQRGNPVLKFVRNVPWEFGEVIPDYVLGQSTCALFLSLRYHNLHPDYIHERLQSLGKNFALRVLLVQVDVKDPQQALKELAKMCILADCTLVLAWSAEEAGRYLETYKAYEQKPADLLMEKLEQNFLSRATECLTTVKSVNKTDSQTLLATFGSLEQLFTASREDLALCPGLGPQKARRLFEVLHEPFLKVPR | binds | binds |
